These are yes or no findings as the source states them, for the method shown. Binding calls can cover weak binding; strength is not graded here.
How the values were obtained:
Assay in all cases: pull-down; MBP-tagged GSDMB proteins (~100 µg) on amylose resin, tag-free IpaH7.8 (~400 µg) added; 25 mM Tris-HCl pH 8.0, 200 mM NaCl, 3 mM β-mercaptoethanol, 4 °C; eluted with maltose, SDS-PAGE; both purified
MBP-GSDMB E95A (human) = MBP-GSDMB E95A (human) (UniProt Q8TAX9)
MBP-GSDMB R99A (human) = MBP-GSDMB R99A (human) (UniProt Q8TAX9)
MBP-GSDMB K14A (human) = MBP-GSDMB K14A (human) (UniProt Q8TAX9)
MBP-GSDMB K117A (human) = MBP-GSDMB K117A (human) (UniProt Q8TAX9)
MBP-GSDMB A18D (human) = MBP-GSDMB A18D (human) (UniProt Q8TAX9)
MBP-GSDMB K119A (human) = MBP-GSDMB K119A (human) (UniProt Q8TAX9)

By UniProt entry, the sequences of proteins in these tests, tags left out. Where a name states a change or a piece, a line headed by the entry shows the natural chain unless it says otherwise. Residues count along the entry.
UniProt Q8TAX9: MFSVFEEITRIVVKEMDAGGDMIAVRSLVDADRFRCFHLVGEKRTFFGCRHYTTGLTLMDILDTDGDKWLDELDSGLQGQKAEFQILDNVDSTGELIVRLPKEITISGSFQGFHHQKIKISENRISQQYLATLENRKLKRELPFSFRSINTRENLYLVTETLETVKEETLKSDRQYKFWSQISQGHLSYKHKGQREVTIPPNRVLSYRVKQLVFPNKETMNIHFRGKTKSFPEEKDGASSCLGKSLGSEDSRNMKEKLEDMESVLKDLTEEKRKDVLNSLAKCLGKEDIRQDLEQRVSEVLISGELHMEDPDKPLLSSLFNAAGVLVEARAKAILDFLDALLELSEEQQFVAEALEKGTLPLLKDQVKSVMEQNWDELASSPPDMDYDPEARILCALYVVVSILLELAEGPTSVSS
UniProt P18014, residues 23-565: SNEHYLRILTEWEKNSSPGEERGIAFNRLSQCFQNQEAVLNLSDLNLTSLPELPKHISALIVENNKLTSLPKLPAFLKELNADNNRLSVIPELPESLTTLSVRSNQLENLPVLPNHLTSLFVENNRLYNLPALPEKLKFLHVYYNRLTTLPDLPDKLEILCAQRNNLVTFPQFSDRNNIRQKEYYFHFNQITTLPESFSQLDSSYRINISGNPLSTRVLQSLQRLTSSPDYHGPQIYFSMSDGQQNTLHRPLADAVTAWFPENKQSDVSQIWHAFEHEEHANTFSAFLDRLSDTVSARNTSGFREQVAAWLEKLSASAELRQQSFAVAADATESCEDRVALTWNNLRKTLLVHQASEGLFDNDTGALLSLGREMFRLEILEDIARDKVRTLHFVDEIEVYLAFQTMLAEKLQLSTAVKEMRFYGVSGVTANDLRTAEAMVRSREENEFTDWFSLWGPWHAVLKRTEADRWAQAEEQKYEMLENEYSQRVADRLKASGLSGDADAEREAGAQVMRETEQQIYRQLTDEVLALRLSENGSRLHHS

Measured: binding

IpaH7.8 protein (residues 23–565) (from UniProt P18014 23-565) (enzyme)
binds: MBP-GSDMB E95A (human) | MBP-GSDMB R99A (human) | MBP-GSDMB K14A (human) | MBP-GSDMB K117A (human) | MBP-GSDMB A18D (human) | MBP-GSDMB K119A (human)

— article PMC9813358, “Insights into the GSDMB-mediated cellular lysis and its targeting by IpaH7.8” (Nature Communications, 2023)
